In assay [1] the target is T1, GFP-tagged ADAR1 p150 (plasmid pmGFP-ADAR1-p150) (UniProt P55265).
T1 sequence: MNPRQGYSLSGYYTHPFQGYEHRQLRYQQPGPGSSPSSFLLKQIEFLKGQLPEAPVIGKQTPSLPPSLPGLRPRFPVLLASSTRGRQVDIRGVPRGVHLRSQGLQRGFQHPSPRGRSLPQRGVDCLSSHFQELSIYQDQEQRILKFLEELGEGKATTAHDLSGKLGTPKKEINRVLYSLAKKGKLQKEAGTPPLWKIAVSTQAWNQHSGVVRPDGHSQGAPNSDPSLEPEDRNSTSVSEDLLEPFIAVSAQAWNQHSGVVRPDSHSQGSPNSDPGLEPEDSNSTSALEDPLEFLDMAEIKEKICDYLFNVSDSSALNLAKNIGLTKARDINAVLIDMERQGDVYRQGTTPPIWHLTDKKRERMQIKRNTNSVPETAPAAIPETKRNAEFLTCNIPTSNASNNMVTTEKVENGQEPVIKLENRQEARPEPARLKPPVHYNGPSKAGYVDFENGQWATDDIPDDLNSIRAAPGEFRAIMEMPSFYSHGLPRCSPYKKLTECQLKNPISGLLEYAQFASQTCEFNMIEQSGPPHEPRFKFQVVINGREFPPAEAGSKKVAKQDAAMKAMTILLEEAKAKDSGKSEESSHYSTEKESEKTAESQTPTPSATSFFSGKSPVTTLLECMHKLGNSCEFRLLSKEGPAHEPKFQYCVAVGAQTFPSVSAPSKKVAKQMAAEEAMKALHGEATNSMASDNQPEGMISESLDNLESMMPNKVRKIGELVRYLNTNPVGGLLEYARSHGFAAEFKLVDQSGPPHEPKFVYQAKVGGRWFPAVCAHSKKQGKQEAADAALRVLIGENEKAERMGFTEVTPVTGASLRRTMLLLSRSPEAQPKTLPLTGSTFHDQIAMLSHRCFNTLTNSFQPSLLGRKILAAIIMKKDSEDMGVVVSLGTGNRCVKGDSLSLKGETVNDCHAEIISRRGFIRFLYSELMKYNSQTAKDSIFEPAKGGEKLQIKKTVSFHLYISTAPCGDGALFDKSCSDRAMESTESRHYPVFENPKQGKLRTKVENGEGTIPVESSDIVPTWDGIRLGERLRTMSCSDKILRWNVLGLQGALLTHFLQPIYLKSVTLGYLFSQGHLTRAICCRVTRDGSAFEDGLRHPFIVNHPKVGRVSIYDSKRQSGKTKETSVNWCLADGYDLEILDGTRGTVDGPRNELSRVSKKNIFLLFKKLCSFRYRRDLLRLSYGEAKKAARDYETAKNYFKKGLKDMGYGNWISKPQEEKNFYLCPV
Put plainly: co-IP; anti-GFP antibody on RIPA lysates of ADAR1 KO cells transfected with ADAR1p110GFP or ADAR1p150GFP plasmids and infected with HSV-1 (MOI 3, 7 h.p.i.); Dynabeads G; Western blot for PKR. In general terms: In western blotting, separated proteins are transferred to a membrane and probed.

By UniProt entry, the sequences of proteins in these tests, tags left out.
UniProt P19525: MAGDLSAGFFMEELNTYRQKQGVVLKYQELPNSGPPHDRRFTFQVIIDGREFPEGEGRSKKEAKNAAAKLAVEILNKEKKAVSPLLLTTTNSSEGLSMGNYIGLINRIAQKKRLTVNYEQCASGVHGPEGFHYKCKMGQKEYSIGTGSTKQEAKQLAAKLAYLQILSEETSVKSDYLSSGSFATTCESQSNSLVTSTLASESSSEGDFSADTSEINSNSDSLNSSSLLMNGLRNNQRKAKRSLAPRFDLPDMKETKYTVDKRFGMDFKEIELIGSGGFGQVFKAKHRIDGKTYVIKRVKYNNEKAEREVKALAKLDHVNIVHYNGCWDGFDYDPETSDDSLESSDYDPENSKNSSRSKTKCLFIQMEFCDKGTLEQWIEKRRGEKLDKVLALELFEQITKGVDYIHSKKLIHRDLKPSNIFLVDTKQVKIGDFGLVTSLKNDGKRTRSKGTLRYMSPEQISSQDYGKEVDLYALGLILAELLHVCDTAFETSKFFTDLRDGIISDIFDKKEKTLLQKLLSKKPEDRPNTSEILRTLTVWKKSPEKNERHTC

In assay [2] the target is protein kinase R (PKR) (human (endogenous in HEK293)) (UniProt P19525). Put plainly: co-IP; anti-PKR antibody on RIPA lysates of HEK293 WT cells infected with HSV-1 (MOI 3, 7 h.p.i.), lysates treated with RNase A (20 ug/mL) and RNase III (2 U/mL); Dynabeads G; Western blot.
The target is the same in assay [3]. Put plainly: co-IP; anti-PKR antibody (1:50) on RIPA lysates of HEK293 ADAR1 WT cells, mock infected, treated with 10 ng/mL IFN-beta or infected with HSV-1 (MOI 3, 7 h.p.i.); Dynabeads G, overnight at 4 C, five washes with RIPA buffer; Western blot.

These are yes or no findings as the source states them, for the method shown. In cells and extracts the contact can be indirect. Some binding calls cover weakened binding; strength is not graded here. For part of these data: Tags and fused reporters may be left off the sequences shown.

Turning to “protein kinase R (PKR) (from UniProt P19525 1-551)”, in assay [1], the binding entry was “binds”.

B1: ADAR1 p150 (interferon-inducible 150 kDa isoform of adenosine deaminase acting on dsRNA 1) (protein, UniProt P55265-1 1-1226)
chain: MNPRQGYSLSGYYTHPFQGYEHRQLRYQQPGPGSSPSSFLLKQIEFLKGQLPEAPVIGKQTPSLPPSLPGLRPRFPVLLASSTRGRQVDIRGVPRGVHLRSQGLQRGFQHPSPRGRSLPQRGVDCLSSHFQELSIYQDQEQRILKFLEELGEGKATTAHDLSGKLGTPKKEINRVLYSLAKKGKLQKEAGTPPLWKIAVSTQAWNQHSGVVRPDGHSQGAPNSDPSLEPEDRNSTSVSEDLLEPFIAVSAQAWNQHSGVVRPDSHSQGSPNSDPGLEPEDSNSTSALEDPLEFLDMAEIKEKICDYLFNVSDSSALNLAKNIGLTKARDINAVLIDMERQGDVYRQGTTPPIWHLTDKKRERMQIKRNTNSVPETAPAAIPETKRNAEFLTCNIPTSNASNNMVTTEKVENGQEPVIKLENRQEARPEPARLKPPVHYNGPSKAGYVDFENGQWATDDIPDDLNSIRAAPGEFRAIMEMPSFYSHGLPRCSPYKKLTECQLKNPISGLLEYAQFASQTCEFNMIEQSGPPHEPRFKFQVVINGREFPPAEAGSKKVAKQDAAMKAMTILLEEAKAKDSGKSEESSHYSTEKESEKTAESQTPTPSATSFFSGKSPVTTLLECMHKLGNSCEFRLLSKEGPAHEPKFQYCVAVGAQTFPSVSAPSKKVAKQMAAEEAMKALHGEATNSMASDNQPEGMISESLDNLESMMPNKVRKIGELVRYLNTNPVGGLLEYARSHGFAAEFKLVDQSGPPHEPKFVYQAKVGGRWFPAVCAHSKKQGKQEAADAALRVLIGENEKAERMGFTEVTPVTGASLRRTMLLLSRSPEAQPKTLPLTGSTFHDQIAMLSHRCFNTLTNSFQPSLLGRKILAAIIMKKDSEDMGVVVSLGTGNRCVKGDSLSLKGETVNDCHAEIISRRGFIRFLYSELMKYNSQTAKDSIFEPAKGGEKLQIKKTVSFHLYISTAPCGDGALFDKSCSDRAMESTESRHYPVFENPKQGKLRTKVENGEGTIPVESSDIVPTWDGIRLGERLRTMSCSDKILRWNVLGLQGALLTHFLQPIYLKSVTLGYLFSQGHLTRAICCRVTRDGSAFEDGLRHPFIVNHPKVGRVSIYDSKRQSGKTKETSVNWCLADGYDLEILDGTRGTVDGPRNELSRVSKKNIFLLFKKLCSFRYRRDLLRLSYGEAKKAARDYETAKNYFKKGLKDMGYGNWISKPQEEKNFYLCPV
Regarding B1, the binding entry is “binds weakly” in assay [2] and “binds” in assay [3].

The values above are taken from article PMC12011305.
